Measurements taken from article PMC6131548.
Results are given in words; binding and its absence hold for the method and conditions named. For part of these data: In cells and extracts the contact can be indirect. Some results given as binding are weak or reduced against the parent protein; the word gives no strength. For part of these data: Tags and fused reporters may be left off the sequences shown. One block for each substance: values may come before it.

Protein sequences, listed by entry. Tags and fused reporters are not part of them. Lines headed by an entry give the natural chain unless they say otherwise; changes in a name come on top. Chains listed by the source or under a name are the forms on record and can include a tag or linker.
UniProt Q12055: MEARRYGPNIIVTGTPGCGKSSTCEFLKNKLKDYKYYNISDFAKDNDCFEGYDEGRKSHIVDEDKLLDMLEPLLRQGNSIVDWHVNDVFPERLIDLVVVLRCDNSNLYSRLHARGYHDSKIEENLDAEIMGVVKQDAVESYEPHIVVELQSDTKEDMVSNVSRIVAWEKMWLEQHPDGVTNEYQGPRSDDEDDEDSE
UniProt P39938: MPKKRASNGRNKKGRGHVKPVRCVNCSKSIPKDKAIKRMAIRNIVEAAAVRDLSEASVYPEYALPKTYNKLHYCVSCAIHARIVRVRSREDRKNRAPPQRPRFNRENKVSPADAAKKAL
eS26^ΔESS1-FLAG (P39938, form named): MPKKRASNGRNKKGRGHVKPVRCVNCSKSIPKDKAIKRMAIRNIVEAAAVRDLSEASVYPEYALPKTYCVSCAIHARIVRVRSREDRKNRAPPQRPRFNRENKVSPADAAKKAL
eS26^ΔESS1ΔESS2-FLAG (P39938, form named): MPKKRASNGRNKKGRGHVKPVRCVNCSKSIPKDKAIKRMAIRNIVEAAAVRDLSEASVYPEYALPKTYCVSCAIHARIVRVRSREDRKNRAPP

Legend:
[1] = target: T1, full-length Tsr2 (NMR) (S. cerevisiae (yeast)) (UniProt Q06672); experiment: NMR chemical shift perturbation; 13C,15N-labeled Tsr2:eS26 complex made by co-expression, compared with free full-length Tsr2; 303.15 K, 20 mM sodium phosphate pH 7.0, 1 mM DTT, 10 μM EDTA; both purified
T1 sequence (chain, 13C,15N-labeled): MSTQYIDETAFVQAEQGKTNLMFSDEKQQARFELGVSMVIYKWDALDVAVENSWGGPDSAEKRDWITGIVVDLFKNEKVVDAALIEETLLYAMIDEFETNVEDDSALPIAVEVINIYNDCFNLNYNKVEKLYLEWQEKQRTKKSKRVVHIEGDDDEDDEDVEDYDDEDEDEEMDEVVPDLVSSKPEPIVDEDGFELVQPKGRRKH

[2] = target: T2, Tsr2-N (two-hybrid) (S. cerevisiae (yeast)) (UniProt Q06672); experiment: two-hybrid; Supplementary Fig. 1a; set-up not shown
T2 sequence: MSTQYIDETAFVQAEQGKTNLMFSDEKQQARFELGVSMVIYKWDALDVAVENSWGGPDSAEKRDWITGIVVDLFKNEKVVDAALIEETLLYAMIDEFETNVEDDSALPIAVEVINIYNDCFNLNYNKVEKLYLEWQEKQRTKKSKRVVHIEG

GST-Kap123 (yeast) = target: T3, GST-Kap123 (yeast) (UniProt P40069); experiment: pull-down; GST-Kap123 on Glutathione Sepharose incubated with eS26^FLAG variants in the presence of competing E. coli lysates; western with α-FLAG; only the target purified
T3 sequence: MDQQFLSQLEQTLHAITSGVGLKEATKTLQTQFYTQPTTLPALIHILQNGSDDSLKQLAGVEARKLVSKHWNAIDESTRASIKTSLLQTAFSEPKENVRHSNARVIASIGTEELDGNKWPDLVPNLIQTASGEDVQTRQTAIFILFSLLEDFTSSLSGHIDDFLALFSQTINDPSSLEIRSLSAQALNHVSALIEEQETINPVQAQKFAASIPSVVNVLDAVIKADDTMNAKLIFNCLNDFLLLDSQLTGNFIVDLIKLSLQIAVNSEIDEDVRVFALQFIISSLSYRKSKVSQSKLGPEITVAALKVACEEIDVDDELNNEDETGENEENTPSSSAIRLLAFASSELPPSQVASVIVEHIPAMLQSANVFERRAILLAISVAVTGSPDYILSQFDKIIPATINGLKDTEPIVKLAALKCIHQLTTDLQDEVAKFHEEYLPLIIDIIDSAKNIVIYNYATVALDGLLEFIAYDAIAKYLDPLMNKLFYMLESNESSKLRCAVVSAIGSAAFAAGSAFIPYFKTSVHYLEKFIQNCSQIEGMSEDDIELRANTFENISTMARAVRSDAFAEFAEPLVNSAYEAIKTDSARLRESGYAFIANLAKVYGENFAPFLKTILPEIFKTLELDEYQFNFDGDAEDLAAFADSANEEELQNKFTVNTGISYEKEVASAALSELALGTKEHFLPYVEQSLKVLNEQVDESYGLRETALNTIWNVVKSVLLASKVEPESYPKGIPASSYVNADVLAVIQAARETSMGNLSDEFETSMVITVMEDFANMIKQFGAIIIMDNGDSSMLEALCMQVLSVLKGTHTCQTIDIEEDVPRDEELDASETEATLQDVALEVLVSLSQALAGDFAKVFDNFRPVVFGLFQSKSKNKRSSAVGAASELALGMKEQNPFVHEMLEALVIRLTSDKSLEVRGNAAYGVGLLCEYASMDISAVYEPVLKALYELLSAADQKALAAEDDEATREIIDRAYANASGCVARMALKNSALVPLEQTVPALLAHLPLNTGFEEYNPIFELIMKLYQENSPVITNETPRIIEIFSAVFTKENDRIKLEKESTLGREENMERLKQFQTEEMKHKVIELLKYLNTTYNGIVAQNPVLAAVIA

Fap7:uS11 complex = Fap7:uS11 complex (UniProt Q12055); experiment: pull-down; recruitment of eS26 to the Fap7:uS11 complex and extraction by Tsr2, Supplementary Fig. 7b; set-up not shown
[3] = target: T4, Tsr2-N (recombinant, binding assays) (S. cerevisiae (yeast)) (UniProt Q06672); experiment: pull-down; in vitro binding assay, Supplementary Fig. 1b lane 6; set-up not shown
T4 sequence: T2 sequence

Substance: eS26 (two-hybrid) (from UniProt P39938 1-119)
binding [2]: binds

Substance: eS26^FLAG (from UniProt P39938 1-119)
binding (GST-Kap123 (yeast)): binds

Substance: eS26^ΔESS1-FLAG (from UniProt P39938 1-119)
binding (GST-Kap123 (yeast)): binds

Next, values leading:

binding [1]: binds
Substance: eS26 (NMR, co-expressed with Tsr2) (from UniProt P39938 1-119)

binding (GST-Kap123 (yeast)): binds
Substance: eS26^ΔESS1ΔESS2-FLAG (from UniProt P39938 1-119)

binding (GST-Kap123 (yeast)): binds
binding (Fap7:uS11 complex): binds
Substance: eS26^ΔESS2-FLAG (from UniProt P39938 1-119)

binding [3]: binds
binding (Fap7:uS11 complex): binds
Substance: recombinant WT eS26 (from UniProt P39938 1-119)
